Results taken from publication doi:10.1101/2021.09.01.458501.
These are yes or no findings as the source states them, for the method shown. Binding seen in cells or lysates may run through a third protein. Some entries that bind do so weakly or less than the wild type.

The chains behind the UniProt entries cited, without tags or fusion partners.
UniProt P49407: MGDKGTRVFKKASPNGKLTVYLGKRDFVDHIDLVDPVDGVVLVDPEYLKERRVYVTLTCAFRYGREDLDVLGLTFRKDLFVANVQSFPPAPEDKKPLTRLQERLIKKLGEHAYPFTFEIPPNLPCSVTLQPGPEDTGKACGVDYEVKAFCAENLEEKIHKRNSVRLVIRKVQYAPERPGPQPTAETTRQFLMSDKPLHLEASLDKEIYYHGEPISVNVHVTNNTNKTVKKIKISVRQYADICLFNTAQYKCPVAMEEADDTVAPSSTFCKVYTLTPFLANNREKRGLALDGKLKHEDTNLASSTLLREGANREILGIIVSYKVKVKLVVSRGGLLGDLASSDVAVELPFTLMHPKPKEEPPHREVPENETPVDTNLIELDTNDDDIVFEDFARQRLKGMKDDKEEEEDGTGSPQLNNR

B1: nucleolar and coiled-body phosphoprotein 1 (NOLC1), mouse (protein, UniProt E9Q5C9 1-702)
chain: MADTGLRRVVPSDLYPLVLRFLRDSQLSEVASKFAKATGATQQDANASSLLDIYSFWLNRSTKAPKVKLQSNGPVTKKAKKETSSSDSSEDSSEDEDKKAQGLPTQKAAAQVKRASVPQHAGKAAAKASESSSSEESSEEEEEDKKKKPVQQKAAKPQAKAVRPPAKKAESSESDSDSDSDSSSEEETPQTQKPKAAVAAKAQTKAEAKPGTPAKAQPKVANGKAAASSSSSSSSDDSEEEKKAAAPPKKTVPKKQVVAKAPVKVAAAPTQKSSSSEDSSSEEEEGQRQPMKKKAGPYSSVPPPSVPLPKKSPGTQAPKKAAAQTQPADSSDDSSDDSDSSSEEEKKPPAKTVVSKTPAKAAPVKKKAESSSDSSDSDSSEDEAPAKPVSTTKSPKPAVTPKPSAAKAVTTPKQPAGSNQKPQSRKADSSSSEEESSSSEEEEASKKSATTPKAKVTAKAAPAKQAPQAAGDSSSDSDSSSSEEEEKTPKPPAKKKAAGGAVSTPAPGKKAEAKSSSSSSSSSSEDSSEEEKKKKPKATTPKIQASKANGTPASLNGKAAKESEEEEEEEETEEKKKAAGTKPGSGKKRKQNETADEATTPQAKKVKLETPNTFPKRKKGERRASSPFRRVREEEIEVDSRVADNSFDAKRGAAGDWGERANQVLKFTKGKSFRHEKTKKKRGSYRGGSISVQVNSVKFDSE

Legend:
[1] = biological target: T1, nucleolar and coiled-body phosphoprotein 1 (NOLC1), human (human (endogenous in HCT116)) (UniProt Q14978); assay: co-IP
T1 sequence: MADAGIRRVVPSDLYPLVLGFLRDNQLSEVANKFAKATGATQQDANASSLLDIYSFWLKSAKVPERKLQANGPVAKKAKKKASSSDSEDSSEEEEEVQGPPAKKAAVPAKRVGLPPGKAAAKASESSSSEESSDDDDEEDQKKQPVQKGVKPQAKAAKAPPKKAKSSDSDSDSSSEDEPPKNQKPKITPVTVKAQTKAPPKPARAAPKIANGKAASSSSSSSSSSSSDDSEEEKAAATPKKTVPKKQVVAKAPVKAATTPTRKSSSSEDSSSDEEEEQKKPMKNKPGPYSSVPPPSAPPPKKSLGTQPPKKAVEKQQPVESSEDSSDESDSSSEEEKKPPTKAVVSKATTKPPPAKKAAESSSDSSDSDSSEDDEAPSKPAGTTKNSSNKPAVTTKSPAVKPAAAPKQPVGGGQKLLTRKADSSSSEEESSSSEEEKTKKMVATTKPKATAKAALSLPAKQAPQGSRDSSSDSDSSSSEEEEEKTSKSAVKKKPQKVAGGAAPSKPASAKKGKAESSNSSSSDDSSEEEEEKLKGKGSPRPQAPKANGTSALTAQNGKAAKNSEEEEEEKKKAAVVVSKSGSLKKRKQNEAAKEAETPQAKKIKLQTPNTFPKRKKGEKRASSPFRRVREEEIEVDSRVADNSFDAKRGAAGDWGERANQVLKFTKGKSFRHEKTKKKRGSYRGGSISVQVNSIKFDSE

[2] = biological target: T2, Fibrillarin, mouse (mouse (endogenous in colorectal cancer tissue)) (UniProt P35550); assay: co-IP
T2 sequence: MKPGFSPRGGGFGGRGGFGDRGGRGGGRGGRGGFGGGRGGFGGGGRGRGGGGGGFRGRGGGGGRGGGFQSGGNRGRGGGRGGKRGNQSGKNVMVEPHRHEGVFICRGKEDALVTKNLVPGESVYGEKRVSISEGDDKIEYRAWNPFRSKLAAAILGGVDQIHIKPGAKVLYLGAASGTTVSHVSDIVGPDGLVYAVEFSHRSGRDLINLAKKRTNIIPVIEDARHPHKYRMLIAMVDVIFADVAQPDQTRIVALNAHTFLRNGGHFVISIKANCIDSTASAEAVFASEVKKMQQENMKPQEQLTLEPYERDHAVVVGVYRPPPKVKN

Molecule	binding [1]	binding [2]
β-arrestin-1 (from UniProt P49407 1-418)	binds	–
B1	–	binds
